# Cleaved PARP in drug-treated melanoma cells

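Human melanoma cells were exposed to two drugs together for 72 h in 1,536-well plates and read by automated microscopy after fixing and staining. The read-out is the fraction of cleaved-PARP-positive nuclei, in % of that fraction in the DMSO control; 200 means twice the control level of this apoptosis marker. Every drug was used at one fixed concentration, the higher of two screened. These are primary screening values without error estimates. The marker varies much from line to line, for technical or biological reasons.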
Only some of the drugs and lines screened are listed, without regard to their results.
An entry leaves out what has no value listed here.
A dash means that no value is listed here.

First drug in all entries: palbociclib, 0.2 µM, CC(=O)c1c(C)c2cnc(Nc3ccc(N4CCNCC4)cn3)nc2n(C2CCCC2)c1=O

Drug key:
NVP-TAE684 (0.4 µM): COc1cc(N2CCC(N3CCN(C)CC3)CC2)ccc1Nc1ncc(Cl)c(Nc2ccccc2S(=O)(=O)C(C)C)n1
XAV939 (10 µM): Oc1nc(-c2ccc(C(F)(F)F)cc2)nc2c1CSCC2
bexarotene (10 µM): C=C(c1ccc(C(=O)O)cc1)c1cc2c(cc1C)C(C)(C)CCC2(C)C
BI-D1870 (1 µM): CC(C)CCN1c2nc(Nc3cc(F)c(O)c(F)c3)ncc2N(C)C(=O)C1C (stereo not drawn)
MK-2206 (2 µM): NC1(c2ccc(-c3nc4ccn5c(=O)[nH]nc5c4cc3-c3ccccc3)cc2)CCC1
GSK650394 (0.8 µM): O=C(O)c1ccc(-c2c[nH]c3ncc(-c4ccccc4)cc23)cc1C1CCCC1
NVP-BEZ235 (0.02 µM): Cn1c(=O)n(-c2ccc(C(C)(C)C#N)cc2)c2c3cc(-c4cnc5ccccc5c4)ccc3ncc21
crizotinib (1 µM): C[C@@H](Oc1cc(-c2cnn(C3CCNCC3)c2)cnc1N)c1c(Cl)ccc(F)c1Cl
GW0742 (10 µM): Cc1cc(SCc2sc(-c3ccc(C(F)(F)F)c(F)c3)nc2C)ccc1OCC(=O)O
embelin (6 µM): CCCCCCCCCCCC1=C(O)C(=O)C=C(O)C1=O
GW2580 (5 µM): COc1ccc(COc2ccc(Cc3cnc(N)nc3N)cc2OC)cc1
pazopanib (2 µM): Cc1ccc(Nc2nccc(N(C)c3ccc4c(C)n(C)nc4c3)n2)cc1S(N)(=O)=O
nilotinib (1 µM): Cc1cn(-c2cc(NC(=O)c3ccc(C)c(Nc4nccc(-c5cccnc5)n4)c3)cc(C(F)(F)F)c2)cn1
vismodegib (5 µM): CS(=O)(=O)c1ccc(C(=O)Nc2ccc(Cl)c(-c3ccccn3)c2)c(Cl)c1
PF-562271 (0.4 µM): CN(c1ncccc1CNc1nc(Nc2ccc3c(c2)CC(=O)N3)ncc1C(F)(F)F)S(C)(=O)=O
lapatinib (4 µM): CS(=O)(=O)CCNCc1ccc(-c2ccc3ncnc(Nc4ccc(OCc5cccc(F)c5)c(Cl)c4)c3c2)o1
FH535 (5 µM): Cc1cc([N+](=O)[O-])ccc1NS(=O)(=O)c1cc(Cl)ccc1Cl
BMS-536924 (1 µM): Cc1cc(N2CCOCC2)cc2[nH]c(-c3c(NC[C@@H](O)c4cccc(Cl)c4)cc[nH]c3=O)nc12
indole-3-carbinol (4 µM): OCc1c[nH]c2ccccc12
SNS-314 (0.004 µM): O=C(Nc1cccc(Cl)c1)Nc1ncc(CCNc2ncnc3ccsc23)s1
CX-4945 (2 µM): O=C(O)c1ccc2c(c1)nc(Nc1cccc(Cl)c1)c1ccncc12
PLX4720 (0.4 µM): CCCS(=O)(=O)Nc1ccc(F)c(C(=O)c2c[nH]c3ncc(Cl)cc23)c1F
JZL184 (5 µM): O=C(Oc1ccc([N+](=O)[O-])cc1)N1CCC(C(O)(c2ccc3c(c2)OCO3)c2ccc3c(c2)OCO3)CC1
lenalidomide (5 µM): Nc1cccc2c1CN(C1CCC(=O)NC1=O)C2=O (stereo not drawn)
tipifarnib (0.05 µM): Cn1cncc1[C@@](N)(c1ccc(Cl)cc1)c1ccc2c(c1)c(-c1cccc(Cl)c1)cc(=O)n2C
A-769662 (10 µM): N#Cc1c(O)c2c(-c3ccc(-c4ccccc4O)cc3)csc2[nH]c1=O
vorinostat (0.4 µM): O=C(CCCCCCC(=O)Nc1ccccc1)NO
decitabine (0.5 µM): Nc1ncn([C@H]2C[C@H](O)[C@@H](CO)O2)c(=O)n1
ENMD-2076 (0.2 µM): Cc1cc(Nc2cc(N3CCN(C)CC3)nc(/C=C/c3ccccc3)n2)n[nH]1
AZD7762 (0.1 µM): NC(=O)Nc1cc(-c2cccc(F)c2)sc1C(=O)N[C@H]1CCCNC1
dasatinib (0.02 µM): Cc1nc(Nc2ncc(C(=O)Nc3c(C)cccc3Cl)s2)cc(N2CCN(CCO)CC2)n1
lestaurtinib (0.02 µM): C[C@]12O[C@H](C[C@]1(O)CO)n1c3ccccc3c3c4c(c5c6ccccc6n2c5c31)CNC4=O

With pazopanib the screen read MZ2-MEL: 225; WM1745: 139; MEL-HO: 148; WM451Lu: 272; WM3526: 164; COLO 792: 68.8. With nilotinib the screen read MZ2-MEL: 45.6; WM1745: 134; MEL-HO: 193; WM451Lu: 115; WM3526: 108; COLO 792: 87.1. lenalidomide gave MZ2-MEL: 70.2; WM1745: 142; MEL-HO: 77.1; WM451Lu: 133; WM3526: 67.9; COLO 792: 156.

bexarotene gave MZ2-MEL: 41.3; WM1745: 114; MEL-HO: 107; WM451Lu: 136; WM3526: 74.2; COLO 792: 148. PF-562271 gave WM1745: 191; MEL-HO: 105; WM451Lu: 173; WM3526: 142; COLO 792: 159. decitabine gave MZ2-MEL: 86.5; WM1745: 143; MEL-HO: 217; WM451Lu: 92.6; WM3526: 77.1; COLO 792: 229.

With JZL184 the screen read MZ2-MEL: 36.6; MEL-HO: 47.4; WM451Lu: 74.1; WM3526: 79.4; COLO 792: 102. indole-3-carbinol gave MZ2-MEL: 78.3; WM1745: 102; MEL-HO: 75.9; WM451Lu: 47.1; WM3526: 61.8; COLO 792: 110. dasatinib gave MZ2-MEL: 48.8; WM1745: 189; MEL-HO: 106; WM451Lu: 67.8; WM3526: 231; COLO 792: 149.

With GW0742 the screen read MZ2-MEL: 119; MEL-HO: 139; WM451Lu: 185; WM3526: 50.0; COLO 792: 110. Results for FH535 are MZ2-MEL: 70.4; MEL-HO: 72.8; WM451Lu: 111; WM3526: 116; COLO 792: 67.5. NVP-BEZ235 gave MZ2-MEL: 173; WM1745: 138; MEL-HO: 80.2; WM451Lu: 130; WM3526: 117; COLO 792: 110.

With lestaurtinib the screen read MZ2-MEL: 131; WM1745: 118; MEL-HO: 190; WM451Lu: 107; WM3526: 122; COLO 792: 254. For crizotinib the values were MZ2-MEL: 17.7; WM1745: 155; MEL-HO: 192; WM451Lu: 109; WM3526: 188; COLO 792: 77.2. For lapatinib the values were MZ2-MEL: 41.6; WM1745: 119; MEL-HO: 228; WM451Lu: 132; WM3526: 78.5; COLO 792: 101.

For tipifarnib the values were MZ2-MEL: 102; WM1745: 107; MEL-HO: 92.2; WM451Lu: 144; WM3526: 91.9; COLO 792: 180. ENMD-2076 gave MZ2-MEL: 63.1; WM1745: 168; MEL-HO: 96.2; WM451Lu: 58.8; WM3526: 56.9; COLO 792: 265. With A-769662 the screen read MZ2-MEL: 35.2; MEL-HO: 163; WM451Lu: 62.8; WM3526: 41.0; COLO 792: 148.

With GW2580 the screen read MEL-HO: 206; WM451Lu: 221; WM3526: 33.9; COLO 792: 120. With MK-2206 the screen read MZ2-MEL: 86.1; WM1745: 133; MEL-HO: 67.1; WM451Lu: 100; WM3526: 149; COLO 792: 59.2. With SNS-314 the screen read MZ2-MEL: 152; WM1745: 115; MEL-HO: 107; WM451Lu: 129; WM3526: 48.6; COLO 792: 134.

With embelin the screen read MZ2-MEL: 50.7; MEL-HO: 239; WM451Lu: 145; WM3526: 52.4; COLO 792: 129. vismodegib gave MZ2-MEL: 112; WM1745: 102; MEL-HO: 215; WM451Lu: 95.8; WM3526: 27.8; COLO 792: 126. Results for BI-D1870 are MZ2-MEL: 29.8; MEL-HO: 89.4; WM451Lu: 201; WM3526: 114; COLO 792: 282.

AZD7762 gave MZ2-MEL: 36.4; WM1745: 116; MEL-HO: 177; WM451Lu: 129; WM3526: 215; COLO 792: 332. vorinostat gave MZ2-MEL: 38.9; WM1745: 150; MEL-HO: 92.2; WM451Lu: 230; WM3526: 65.9; COLO 792: 177. XAV939 gave MZ2-MEL: 61.8; MEL-HO: 111; WM451Lu: 105; WM3526: 141; COLO 792: 179.

For BMS-536924 the values were MZ2-MEL: 269; WM1745: 204; MEL-HO: 205; WM451Lu: 77.7; WM3526: 195; COLO 792: 762. With CX-4945 the screen read MZ2-MEL: 150; WM1745: 136; MEL-HO: 76.6; WM451Lu: 83.7; WM3526: 488; COLO 792: 248. Results for GSK650394 are MZ2-MEL: 250; WM1745: 714; MEL-HO: 102; WM451Lu: 106; WM3526: 66.7; COLO 792: 226.

Results for PLX4720 are MZ2-MEL: 161; WM1745: 90.5; MEL-HO: 54.3; WM451Lu: 156; WM3526: 226; COLO 792: 54.3. For NVP-TAE684 the values were MZ2-MEL: 173; MEL-HO: 114; WM451Lu: 179; WM3526: 134; COLO 792: 73.9.

Some entries from above, unchanged:

Second drug,MZ2-MEL,WM1745,MEL-HO,WM451Lu,WM3526,COLO 792
JZL184,36.6,-,47.4,74.1,79.4,102
MK-2206,86.1,133,67.1,100,149,59.2
vorinostat,38.9,150,92.2,230,65.9,177

From a melanoma drug combination screen (doi:10.1371/journal.pone.0140310); values rounded.